Results as given in paper PMC7862700.
The list shows a part of the results, in another mix than the full data. For part of these data: At the low end of the ranking, values are background and their order means little. The list shows a part of the results. For part of these data: Construct or isoform of the protein are uncertain.

By UniProt entry, the sequences of proteins in these tests, tags left out. Where a name states a change or a piece, a line headed by the entry shows the natural chain unless it says otherwise.
UniProt P50549: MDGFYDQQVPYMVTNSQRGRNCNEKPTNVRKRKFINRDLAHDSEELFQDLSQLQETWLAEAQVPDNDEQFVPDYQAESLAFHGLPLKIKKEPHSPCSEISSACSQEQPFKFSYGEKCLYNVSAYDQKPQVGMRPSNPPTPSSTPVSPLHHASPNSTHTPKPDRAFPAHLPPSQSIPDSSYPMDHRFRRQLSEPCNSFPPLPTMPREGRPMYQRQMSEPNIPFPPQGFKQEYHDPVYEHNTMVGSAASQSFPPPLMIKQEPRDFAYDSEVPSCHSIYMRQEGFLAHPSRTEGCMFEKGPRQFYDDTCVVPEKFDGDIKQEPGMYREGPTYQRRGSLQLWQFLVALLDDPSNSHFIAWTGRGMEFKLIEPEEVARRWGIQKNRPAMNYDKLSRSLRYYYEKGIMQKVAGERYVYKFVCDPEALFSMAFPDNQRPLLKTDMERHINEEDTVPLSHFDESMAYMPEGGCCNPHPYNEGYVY

The sequences below were run against T1, ELK4 (UniProt P28324-2) (assay: DAPPL (digital affinity profiling via proximity ligation, sequencing)). Settings: 10 mM Tris-HCl pH 7.5, 50 mM NaCl, 1 mM DTT, 4% glycerol, room temperature, 30 min; GST-TFs on glutathione beads, 16-mer random dsDNA library, 0.1% …; high values mean tight binding; double strand, one strand shown; scale: fold enrichment (6-mer frequency, TF over GST control).
T1 sequence: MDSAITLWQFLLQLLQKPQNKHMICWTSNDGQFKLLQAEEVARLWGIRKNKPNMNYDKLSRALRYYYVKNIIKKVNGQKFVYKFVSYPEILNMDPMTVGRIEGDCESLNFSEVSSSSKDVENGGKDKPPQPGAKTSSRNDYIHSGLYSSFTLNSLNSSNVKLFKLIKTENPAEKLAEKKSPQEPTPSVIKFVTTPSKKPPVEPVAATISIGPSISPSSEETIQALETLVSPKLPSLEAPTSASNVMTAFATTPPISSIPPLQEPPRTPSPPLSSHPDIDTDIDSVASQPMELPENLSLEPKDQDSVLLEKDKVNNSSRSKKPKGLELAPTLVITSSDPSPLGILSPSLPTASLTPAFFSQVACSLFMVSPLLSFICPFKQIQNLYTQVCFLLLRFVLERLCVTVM
In the case of GAAGTC, the binding signal is reported as 0.984.
CCCCGT gave a binding signal of 0.948.
GCTGGT was tested, and the binding signal was 1.45.
In the case of TATGAC, the binding signal is reported as 1.45.
Sequence CGCCCA has a binding signal of 1.04.
Sequence TTCGGT has a binding signal of 1.21.
Work on AAACCG yielded a binding signal of 0.918.
For ACTAGA, the binding signal was 0.891.
AATTGA was tested, and the binding signal was 1.18.
TACCTG showed a binding signal of 1.07.
Work on GGCACT yielded a binding signal of 1.28.
AAGTGC gave a binding signal of 1.21.
TCTAGG showed a binding signal of 0.997.
Sequence GTCACT has a binding signal of 1.07.
CACAGC showed a binding signal of 1.04.
CTTACA showed a binding signal of 1.3.
CATACC was tested, and the binding signal was 0.9.
With GCCCGC the binding signal was 1.15.
CGTACC gave a binding signal of 1.18.
With CTACCT the binding signal was 1.36.
CGTTGT showed a binding signal of 1.14.
GTCTTG was tested, and the binding signal was 1.02.
ACAGCA gave a binding signal of 1.02.
CGTCGC was tested, and the binding signal was 0.985.
CCCAAG gave a binding signal of 0.898.
Sequence CTCGGG has a binding signal of 0.999.
CCAACA showed a binding signal of 1.08.
Sequence GCAACC has a binding signal of 0.939.
Work on GAATGT yielded a binding signal of 1.07.
For AGCCTA, the binding signal was 1.17.
With TTGTAA the binding signal was 1.36.
CCAAAC was tested, and the binding signal was 1.15.
AGTGCA gave a binding signal of 0.991.
GGGTTT gave a binding signal of 1.12.
Work on CCGAAC yielded a binding signal of 1.25.
In the case of CTATGC, the binding signal is reported as 1.38.
Sequence AGCGCC has a binding signal of 1.11.
CCGTAT showed a binding signal of 1.27.
ATTACC was tested, and the binding signal was 1.21.

What follows are sequences tested against T2, ETV4 (UniProt P43268) in the same assay as above. Settings: 10 mM Tris-HCl pH 7.5, 50 mM NaCl, 1 mM DTT, 4% glycerol, room temperature, 30 min; GST-TFs on glutathione beads, 16-mer random dsDNA library, 0.1% …; high values mean tight binding; double strand, one strand shown; scale: fold enrichment (6-mer frequency, TF over GST control).
T2 sequence: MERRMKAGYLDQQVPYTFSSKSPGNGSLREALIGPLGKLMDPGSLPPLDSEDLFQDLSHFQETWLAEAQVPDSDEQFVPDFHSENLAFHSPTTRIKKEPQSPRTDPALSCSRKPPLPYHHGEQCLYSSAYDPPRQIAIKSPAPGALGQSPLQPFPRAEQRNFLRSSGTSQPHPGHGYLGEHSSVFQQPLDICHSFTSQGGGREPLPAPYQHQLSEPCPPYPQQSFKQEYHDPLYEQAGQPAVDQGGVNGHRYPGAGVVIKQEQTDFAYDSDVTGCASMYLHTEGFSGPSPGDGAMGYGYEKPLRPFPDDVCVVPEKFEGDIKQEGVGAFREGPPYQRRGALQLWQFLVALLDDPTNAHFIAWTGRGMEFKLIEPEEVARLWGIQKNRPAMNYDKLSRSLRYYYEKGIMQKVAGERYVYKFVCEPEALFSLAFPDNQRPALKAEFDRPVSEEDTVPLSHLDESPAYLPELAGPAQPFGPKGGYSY
GAAGTC showed a binding signal of 1.16.
CCCCGT was tested, and the binding signal was 1.05.
GCTGGT gave a binding signal of 1.27.
TATGAC gave a binding signal of 1.39.
In the case of CGCCCA, the binding signal is reported as 1.02.
With TTCGGT the binding signal was 1.12.
AAACCG was tested, and the binding signal was 1.03.
Work on ACTAGA yielded a binding signal of 0.974.
Work on AATTGA yielded a binding signal of 1.15.
With TACCTG the binding signal was 1.12.
GGCACT was tested, and the binding signal was 1.29.
AAGTGC gave a binding signal of 1.41.
TCTAGG showed a binding signal of 1.07.
In the case of GTCACT, the binding signal is reported as 1.1.
CACAGC showed a binding signal of 0.984.
In the case of CTTACA, the binding signal is reported as 1.25.
Sequence CATACC has a binding signal of 1.04.
In the case of GCCCGC, the binding signal is reported as 1.19.
CGTACC showed a binding signal of 1.19.
CTACCT showed a binding signal of 1.33.
For CGTTGT, the binding signal was 1.04.
In the case of GTCTTG, the binding signal is reported as 1.06.
In the case of ACAGCA, the binding signal is reported as 1.06.
In the case of CGTCGC, the binding signal is reported as 1.08.
Work on CCCAAG yielded a binding signal of 0.868.
Work on CTCGGG yielded a binding signal of 1.08.
In the case of CCAACA, the binding signal is reported as 1.09.
GCAACC was tested, and the binding signal was 1.12.
Sequence GAATGT has a binding signal of 1.06.
AGCCTA showed a binding signal of 1.07.
Sequence TTGTAA has a binding signal of 1.32.
With CCAAAC the binding signal was 1.06.
AGTGCA gave a binding signal of 1.09.
GGGTTT showed a binding signal of 1.01.
With CCGAAC the binding signal was 1.25.
For CTATGC, the binding signal was 1.55.
Sequence AGCGCC has a binding signal of 1.09.
Work on CCGTAT yielded a binding signal of 1.1.
In the case of ATTACC, the binding signal is reported as 1.17.

The sequences below were run against ETV1 (UniProt P50549) in the same assay as above. Settings: 10 mM Tris-HCl pH 7.5, 50 mM NaCl, 1 mM DTT, 4% glycerol, room temperature, 30 min; GST-TFs on glutathione beads, 16-mer random dsDNA library, 0.1% …; high values mean tight binding; double strand, one strand shown; scale: fold enrichment (6-mer frequency, TF over GST control).
In the case of GAAGTC, the binding signal is reported as 1.22.
CCCCGT showed a binding signal of 1.
Work on GCTGGT yielded a binding signal of 1.02.
TATGAC showed a binding signal of 1.26.
With CGCCCA the binding signal was 0.938.
For TTCGGT, the binding signal was 1.23.
Sequence AAACCG has a binding signal of 1.18.
For ACTAGA, the binding signal was 0.933.
AATTGA was tested, and the binding signal was 1.21.
TACCTG showed a binding signal of 1.27.
GGCACT gave a binding signal of 1.38.
Work on AAGTGC yielded a binding signal of 1.25.
For TCTAGG, the binding signal was 0.953.
Work on GTCACT yielded a binding signal of 0.992.
CACAGC gave a binding signal of 1.1.
CTTACA was tested, and the binding signal was 1.24.
In the case of CATACC, the binding signal is reported as 0.993.
Work on GCCCGC yielded a binding signal of 1.06.
For CGTACC, the binding signal was 1.26.
CTACCT was tested, and the binding signal was 1.54.
Sequence CGTTGT has a binding signal of 0.926.
With GTCTTG the binding signal was 0.963.
For ACAGCA, the binding signal was 0.979.
Work on CGTCGC yielded a binding signal of 1.3.
With CCCAAG the binding signal was 0.846.
Sequence CTCGGG has a binding signal of 1.03.
With CCAACA the binding signal was 1.04.
GCAACC gave a binding signal of 1.02.
With GAATGT the binding signal was 1.03.
With AGCCTA the binding signal was 1.12.
Sequence TTGTAA has a binding signal of 1.31.
For CCAAAC, the binding signal was 1.02.
AGTGCA gave a binding signal of 1.11.
For GGGTTT, the binding signal was 1.1.
Sequence CCGAAC has a binding signal of 1.19.
Sequence CTATGC has a binding signal of 1.55.
Sequence AGCGCC has a binding signal of 0.957.
Sequence CCGTAT has a binding signal of 1.19.
ATTACC was tested, and the binding signal was 1.23.
